From PubChem BioAssay AID720697 (Broad Institute, 2013)
The shares of active, inactive and inconclusive entries below differ from those in the screen. Calls of active or inactive are those of the source.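 Rule for the calls: active = signal loss with fitted half-maximal concentration at or below twice the top valid tested dose in every test run; inconclusive = runs disagree, flat 30 to 70% signal loss, or poor fit; inactive = all runs flat, opposite direction, or potency beyond limit.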

Test: general mammalian cell viability loss – inhibitor set, cherry-pick, set 2, cytotoxicity control for miR-122 modulator project, dose response (AID 720697);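 note: 0% = median of neutral control wells and -100% = MG132 positive control wells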
Conditions: HEK293T viability, CellTiter-Glo luminescence, 48 h; at 26 µM (top of the series) unless noted

Row | SMILES | activity change, negative = cytotoxicity
1 | C[C@H]1CN([C@@H](C)CO)S(=O)(=O)c2ccc(C#Cc3ccccc3F)cc2O[C@@H]1CN(C)C(=O)c1ccc2c(c1)OCO2 | inconclusive: -79.7%
2 | CCNC(=O)Nc1ccc2c(c1)C(=O)N(C)[C@H]1CC[C@H](CC(=O)NCc3ccccc3F)O[C@H]1CO2 | inactive: 3.94%
3 | CC(C)C#Cc1ccc2c(c1)O[C@H](CN(C)C(=O)c1ccncc1)[C@H](C)CN([C@@H](C)CO)S2(=O)=O | inconclusive: -20.4%
4 | CN1C(=O)c2cc(NC(=O)c3cccs3)ccc2OC[C@@H]2O[C@@H](CC(=O)NCC(F)(F)F)CC[C@H]21 | inconclusive: -91.5%
5 | O=C(Nc1ccccc1F)N1[C@H](CO)[C@@H]2c3ccccc3NC[C@@H]21 | inactive: 6.09% [at 23.5 µM]
6 | CC(C)C(=O)Nc1ccc2c(c1)C(=O)N(C)[C@H]1CC[C@@H](CC(=O)NCc3ccccc3F)O[C@H]1CO2 | inconclusive: -46.3% [at 23.5 µM]
7 | COc1ccccc1C#Cc1ccc2c(c1)O[C@@H](CN(C)Cc1cccnc1)[C@@H](C)CN([C@H](C)CO)S2(=O)=O | inconclusive: -49.3%
8 | Cc1nn(C)cc1NC(=O)C[C@@H]1CC[C@@H]2[C@@H](COc3ccc(NC(=O)Nc4cccc(Cl)c4)cc3C(=O)N2C)O1 | inconclusive: -28.3%
9 | CCC(=O)N1[C@H](CO)[C@H]2c3ccccc3N(C(=O)CC(F)(F)F)C[C@H]21 | inconclusive: -39.7% [at 23.5 µM]
10 | CNC(=O)C[C@@H]1CC[C@H]2[C@H](COc3ccc(NC(=O)c4cccc(OC)c4)cc3C(=O)N2C)O1 | inconclusive: 120%
